Counter-ions that a name gives are not always drawn. ± gives the uncertainty stated by the source. This is one part of the list. Baselines shift from plate to plate; read single values as rough.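 Larvae carried a heat-shock-induced fluorescent stripe in rod outer segments, set at 6 dpf; the shedding distance runs from this stripe to the outer segment tip, measured in confocal stacks, about three fish per compound. The controls got 0.2% DMSO vehicle, and the paper flagged compounds with at least a 20% change against the same-week control and p < 0.001 (Dunnett test on mixed-effects models).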
Each compound was assayed on Danio rerio larva rod photoreceptor outer segment (assay: rod outer segment growth distance Dg, difference from same-week DMSO control mean; higher = more outer segment growth). Conditions: 20 µM; treatment time: 4 days (6-10 dpf).

| SMILES | rod outer segment growth distance Dg [um] |
| --- | --- |
| O=c1cc(N2CCOCC2)oc2c1ccc1ccccc12 | -0.25 ± 0.19 |
| CC(C)[C@H](N)C(=O)OCCOCn1cnc2c(=O)nc(N)[nH]c21 [Valaciclovir HCl] | 0.98 ± 0.18 |
| C[C@@H]1COCCN1c1cc(C2(S(C)(=O)=O)CC2)nc(-c2cccc3[nH]ccc23)n1 | -1.25 ± 0.23 |
| C[C@H]1C[C@@H]2[C@H]([C@@H](O)C[C@@]3(C)[C@H]2CC[C@]3(O)C(=O)CO)[C@@]2(C)C=CC(=O)C=C12 [Methylprednisolone] | -0.58 ± 0.22 |
| CCn1cc(C(=O)O)c(=O)c2cc(F)c(N3CCN(C)CC3)cc21 [Pefloxacin Mesylate] | -0.97 ± 0.19 |
| CCCNC(=O)Nc1ccc(Oc2ncnc3cc(OC)c(OC)cc23)cc1Cl | -0.34 ± 0.18 |
| CNC(=C[N+](=O)[O-])NCCSCc1ccc(CN(C)C)o1 [Ranitidine] | -0.02 ± 0.21 |
| CCN(CC)CCCCNc1ncc2cc(-c3cc(OC)cc(OC)c3)c(NC(=O)NC(C)(C)C)nc2n1 | -0.19 ± 0.23 |
| CC1C(=O)OC2C(O)C34C5CC(C(C)(C)C)C36C(OC(=O)C6O)OC4(C(=O)O5)C12O (stereo unspecified) [Ginkgolide B] | 1 ± 0.31 |
| CNC[C@H](O)c1ccc(O)c(O)c1 [Epinephrine Bitartrate] | -0.32 ± 0.21 |
| O=c1[nH]c(=O)n([C@H]2C[C@H](O)[C@@H](CO)O2)cc1F [Floxuridine] | 1.46 ± 0.18 |
| N#Cc1c(O)c2c(-c3ccc(-c4ccccc4O)cc3)csc2[nH]c1=O | 0.07 ± 0.16 |
| O=C(O)[C@H]1O[C@@H](Oc2cc3oc(-c4ccccc4)cc(=O)c3c(O)c2O)[C@H](O)[C@@H](O)[C@@H]1O [Baicalin] | 1.17 ± 0.21 |
| O=C(O)c1cn(-c2ccc(F)cc2)c2cc(N3CCNCC3)c(F)cc2c1=O [Sarafloxacin HCl] | 0.6 ± 0.29 |
| CC(NCCc1ccc(O)cc1)C(O)c1ccc(O)cc1 (stereo unspecified) [Ritodrine HCl] | -0.33 ± 0.19 |
| CC(C)c1ccc(NC(=O)Cn2cnc3c2c(=O)n(C)c(=O)n3C)cc1 | -1.63 ± 0.17 |
| CCCCOc1ccc(CC(=O)NO)cc1 [Bufexamac] | 1.01 ± 0.19 |
| CN/C(=N\CCSCc1nc[nH]c1C)NC#N [Cimetidine] | -1.2 ± 0.18 |
| COc1ccccc1OCC(O)CN1CCN(CC(=O)Nc2c(C)cccc2C)CC1 (stereo unspecified) [Ranolazine] | -0.67 ± 0.24 |

Three consecutive compounds already listed, quoted:

| SMILES | rod outer segment growth distance Dg [um] |
| --- | --- |
| O=c1cc(N2CCOCC2)oc2c1ccc1ccccc12 | -0.25 ± 0.19 |
| CC(C)[C@H](N)C(=O)OCCOCn1cnc2c(=O)nc(N)[nH]c21 [Valaciclovir HCl] | 0.98 ± 0.18 |
| C[C@@H]1COCCN1c1cc(C2(S(C)(=O)=O)CC2)nc(-c2cccc3[nH]ccc23)n1 | -1.25 ± 0.23 |

Reformatted as labelled records: part of the list above.
CCn1cc(C(=O)O)c(=O)c2cc(F)c(N3CCN(C)CC3)cc21 [Pefloxacin Mesylate]
  rod outer segment growth distance Dg [um]: -0.97 ± 0.19
CCCNC(=O)Nc1ccc(Oc2ncnc3cc(OC)c(OC)cc23)cc1Cl
  rod outer segment growth distance Dg [um]: -0.34 ± 0.18

The list continues:

| SMILES | rod outer segment growth distance Dg [um] |
| --- | --- |
| O=C(c1ccc(F)cc1)C1CCN(CCn2c(=O)[nH]c3ccccc3c2=O)CC1 [Ketanserin] | -1.95 ± 0.28 |
| Cc1nc2c([nH]1)-c1ccccc1N(C(=O)c1ccc(NC(=O)c3ccccc3-c3ccccc3)cc1)CC2 [Conivaptan HCl] | 0.65 ± 0.24 |
| OCCN1C[C@H](O)[C@@H](O)[C@H](O)[C@H]1CO [Miglitol] | -0.78 ± 0.29 |
| O=C(O)/C=C/c1ccc(Cn2ccnc2)cc1 [Ozagrel] | 1.08 ± 0.26 |
| CCOC(=O)c1ccc(OC(=O)CCCCCNC(=N)N)cc1 [Gabexate Mesylate] | 0.77 ± 0.2 |
| CCCCCCCN(CC)CCCC(O)c1ccc(NS(C)(=O)=O)cc1 (stereo unspecified) [Ibutilide Fumarate] | 0.31 ± 0.23 |
| C=C1CC[C@@H]2[C@](C)(CO)[C@H](O)CC[C@@]2(C)[C@@H]1C/C=C1/C(=O)OC[C@H]1O [Andrographolide] | 0.8 ± 0.23 |
| COc1ccc(CC(C)NCC(O)c2ccc(O)c(NC=O)c2)cc1 (stereo unspecified) [Formoterol Hemifumarate] | -0.12 ± 0.25 |
| CC(C)(Sc1cc(C(C)(C)C)c(O)c(C(C)(C)C)c1)Sc1cc(C(C)(C)C)c(O)c(C(C)(C)C)c1 [Probucol] | 0.84 ± 0.24 |
| O=C1CCC(N2C(=O)c3ccccc3C2=O)C(=O)N1 (stereo unspecified) [Thalidomide] | -0.14 ± 0.18 |
| O=C(c1ccccc1)c1ccc2n1CCC2C(=O)O (stereo unspecified) [Ketorolac] | -0.5 ± 0.25 |
| O=c1[nH]cnc2c1ncn2[C@H]1CC[C@@H](CO)O1 [Didanosine] | 0.89 ± 0.29 |
| CNC[C@@H](O)c1ccc(O)c(O)c1 [L-Adrenaline] | -0.31 ± 0.24 |
| Cc1ccccc1C(=O)Nc1ccc(C(=O)N2CCCC(N(C)C)c3ccccc32)cc1 (stereo unspecified) [Mozavaptan] | -1.15 ± 0.17 |
| NS(=O)(=O)Cc1noc2ccccc12 [Zonisamide] | -0.72 ± 0.16 |
| COC[C@H](NC(=O)c1cnc(C)s1)C(=O)N[C@@H](COC)C(=O)N[C@@H](Cc1ccccc1)C(=O)[C@@]1(C)CO1 [Oprozomib (ONX 0912)] | -0.61 ± 0.18 |
| Cc1cnc(C(=O)NCCc2ccc(S(=O)(=O)NC(=O)NC3CCCCC3)cc2)cn1 [Glipizide] | 0.02 ± 0.27 |
| Cc1ccc(C(=O)Nc2cccc(C(F)(F)F)c2)cc1Nc1nc(-c2cccnc2)nc2c1cnn2C | 0.43 ± 0.25 |
| CN(C)Cc1c(C(=O)NCCOc2ccc(C(=O)NO)cc2)oc2ccccc12 | -0.82 ± 0.21 |

The compounds below were run on Danio rerio larva rod photoreceptor outer segment (assay: rod outer segment shedding distance Ds, difference from same-week DMSO control mean; higher = less outer segment shedding). Conditions: 20 µM; treatment time: 4 days (6-10 dpf).

| SMILES | rod outer segment shedding distance Ds [um] |
| --- | --- |
| O=c1cc(N2CCOCC2)oc2c1ccc1ccccc12 | -0.15 ± 0.12 |
| CC(C)[C@H](N)C(=O)OCCOCn1cnc2c(=O)nc(N)[nH]c21 [Valaciclovir HCl] | 0.32 ± 0.27 |
| C[C@@H]1COCCN1c1cc(C2(S(C)(=O)=O)CC2)nc(-c2cccc3[nH]ccc23)n1 | -0.55 ± 0.18 |
| C[C@H]1C[C@@H]2[C@H]([C@@H](O)C[C@@]3(C)[C@H]2CC[C@]3(O)C(=O)CO)[C@@]2(C)C=CC(=O)C=C12 [Methylprednisolone] | -0.15 ± 0.18 |
| CCn1cc(C(=O)O)c(=O)c2cc(F)c(N3CCN(C)CC3)cc21 [Pefloxacin Mesylate] | -1.13 ± 0.29 |
| CCCNC(=O)Nc1ccc(Oc2ncnc3cc(OC)c(OC)cc23)cc1Cl | 0.27 ± 0.21 |
| CNC(=C[N+](=O)[O-])NCCSCc1ccc(CN(C)C)o1 [Ranitidine] | -0.02 ± 0.14 |
| CCN(CC)CCCCNc1ncc2cc(-c3cc(OC)cc(OC)c3)c(NC(=O)NC(C)(C)C)nc2n1 | -0.44 ± 0.23 |
| CC1C(=O)OC2C(O)C34C5CC(C(C)(C)C)C36C(OC(=O)C6O)OC4(C(=O)O5)C12O (stereo unspecified) [Ginkgolide B] | -0.03 ± 0.24 |
| CNC[C@H](O)c1ccc(O)c(O)c1 [Epinephrine Bitartrate] | -0.07 ± 0.31 |
| O=c1[nH]c(=O)n([C@H]2C[C@H](O)[C@@H](CO)O2)cc1F [Floxuridine] | -0.61 ± 0.2 |
| N#Cc1c(O)c2c(-c3ccc(-c4ccccc4O)cc3)csc2[nH]c1=O | -0.13 ± 0.15 |
| O=C(O)[C@H]1O[C@@H](Oc2cc3oc(-c4ccccc4)cc(=O)c3c(O)c2O)[C@H](O)[C@@H](O)[C@@H]1O [Baicalin] | 1.22 ± 0.36 |
| O=C(O)c1cn(-c2ccc(F)cc2)c2cc(N3CCNCC3)c(F)cc2c1=O [Sarafloxacin HCl] | 0.45 ± 0.27 |
| CC(NCCc1ccc(O)cc1)C(O)c1ccc(O)cc1 (stereo unspecified) [Ritodrine HCl] | -0.3 ± 0.18 |
| CC(C)c1ccc(NC(=O)Cn2cnc3c2c(=O)n(C)c(=O)n3C)cc1 | -0.73 ± 0.15 |
| CCCCOc1ccc(CC(=O)NO)cc1 [Bufexamac] | 0.37 ± 0.17 |
| CN/C(=N\CCSCc1nc[nH]c1C)NC#N [Cimetidine] | -0.79 ± 0.28 |
| COc1ccccc1OCC(O)CN1CCN(CC(=O)Nc2c(C)cccc2C)CC1 (stereo unspecified) [Ranolazine] | -0.03 ± 0.15 |

| SMILES | rod outer segment shedding distance Ds [um] |
| --- | --- |
| O=C(c1ccc(F)cc1)C1CCN(CCn2c(=O)[nH]c3ccccc3c2=O)CC1 [Ketanserin] | -1.28 ± 0.29 |
| Cc1nc2c([nH]1)-c1ccccc1N(C(=O)c1ccc(NC(=O)c3ccccc3-c3ccccc3)cc1)CC2 [Conivaptan HCl] | -0.59 ± 0.25 |
| OCCN1C[C@H](O)[C@@H](O)[C@H](O)[C@H]1CO [Miglitol] | -0.18 ± 0.23 |
| O=C(O)/C=C/c1ccc(Cn2ccnc2)cc1 [Ozagrel] | 0.51 ± 0.29 |
| CCOC(=O)c1ccc(OC(=O)CCCCCNC(=N)N)cc1 [Gabexate Mesylate] | -1.3 ± 0.22 |
| CCCCCCCN(CC)CCCC(O)c1ccc(NS(C)(=O)=O)cc1 (stereo unspecified) [Ibutilide Fumarate] | 0.32 ± 0.24 |
| C=C1CC[C@@H]2[C@](C)(CO)[C@H](O)CC[C@@]2(C)[C@@H]1C/C=C1/C(=O)OC[C@H]1O [Andrographolide] | 0.51 ± 0.38 |
| COc1ccc(CC(C)NCC(O)c2ccc(O)c(NC=O)c2)cc1 (stereo unspecified) [Formoterol Hemifumarate] | -0.34 ± 0.28 |
| CC(C)(Sc1cc(C(C)(C)C)c(O)c(C(C)(C)C)c1)Sc1cc(C(C)(C)C)c(O)c(C(C)(C)C)c1 [Probucol] | -0.5 ± 0.23 |
| O=C1CCC(N2C(=O)c3ccccc3C2=O)C(=O)N1 (stereo unspecified) [Thalidomide] | -1.83 ± 0.24 |
| O=C(c1ccccc1)c1ccc2n1CCC2C(=O)O (stereo unspecified) [Ketorolac] | -0.19 ± 0.18 |
| O=c1[nH]cnc2c1ncn2[C@H]1CC[C@@H](CO)O1 [Didanosine] | -0.19 ± 0.11 |
| CNC[C@@H](O)c1ccc(O)c(O)c1 [L-Adrenaline] | 0.96 ± 0.41 |
| Cc1ccccc1C(=O)Nc1ccc(C(=O)N2CCCC(N(C)C)c3ccccc32)cc1 (stereo unspecified) [Mozavaptan] | -0.11 ± 0.13 |
| NS(=O)(=O)Cc1noc2ccccc12 [Zonisamide] | 0.11 ± 0.19 |
| COC[C@H](NC(=O)c1cnc(C)s1)C(=O)N[C@@H](COC)C(=O)N[C@@H](Cc1ccccc1)C(=O)[C@@]1(C)CO1 [Oprozomib (ONX 0912)] | 0.16 ± 0.13 |
| Cc1cnc(C(=O)NCCc2ccc(S(=O)(=O)NC(=O)NC3CCCCC3)cc2)cn1 [Glipizide] | 0.01 ± 0.15 |
| Cc1ccc(C(=O)Nc2cccc(C(F)(F)F)c2)cc1Nc1nc(-c2cccnc2)nc2c1cnn2C | 0.84 ± 0.3 |
| CN(C)Cc1c(C(=O)NCCOc2ccc(C(=O)NO)cc2)oc2ccccc12 | 0.91 ± 0.24 |
